The supplement of paper PMC7877785
± gives the uncertainty stated by the source. Many of these values have a large error.

Experiment: self-splicing fitness, log relative to wild type (ln ratio); higher = more splicing; Tetrahymena group I intron in knt gene, E. coli kanamycin selection, DiMSum; sequences stand for … in CUCUCU…GGAGGGAAAAGUUAUCAGGCAUGCACCUGGUAGCUAGUCUUUAAACCAAUAGAUUGCAUCGGUUUAAAAGGCAAGACCGUCAAAUUGCGGGAAAGGGGUCAACAGCCGUUCAGUACCAAGUCUCAGGGGAAACUUUGAGAUGGCCUUGCAAAGGGUAUGGUAAUAAGCUGACGGACAUGGUCCUAACCACGCAGCCAAGUCCUAAGUCAACAGAUCUUCUGUUGAUAUGGAUGCAGUUCACAGACUAAAUGUCGGUCGGGGAAGAUGUAUUCUUCUCAUAAGAUAUAGUCGGACCUCUCCUUAAUGGGAGCUAGCGGAUGAAGUGAUGCAACACUGGAGCCGCUGGGAACUAAUUUGUAUGCGAAAGUAUAUUGAUUAGUUUUGGAGUACUCGUGGUCG
In short: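 Six replicate transformations of E. coli BL21(DE3) with a pET-22b(+) library were grown overnight at 37°C or 30°C. The library randomised all eight P1ex-region intron nucleotides, the intron lying in the knt kanamycin-resistance gene, and plates were LB agar with or without 25 μg/mL kanamycin plus 100 μg/mL carbenicillin, 50 μM IPTG and 0.2% rhamnose. Pooled colonies were amplicon-sequenced on an Illumina HiSeq 2500, and fitness is the DiMSum error-weighted combination of wild-type-normalised replicate fold changes, kanamycin versus none.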

AGCAAGCAAUAUUACGUGCC
self-splicing fitness (ln) (30 °C): -4.13 ± 0.74

UCCGAGCAAUAUUACGAACU
self-splicing fitness (ln) (37 °C): -2.3 ± 0.32

CGCAAGCAAUAUUACGACUU
self-splicing fitness (ln) (30 °C): -4.41 ± 0.51

UUUUAGCAAUAUUACGCUAA
self-splicing fitness (ln) (30 °C): -2.25 ± 1.1
self-splicing fitness (ln) (37 °C): -2.55 ± 0.63

UAGUAGCAAUAUUACGCGAA
self-splicing fitness (ln) (30 °C): -1.93 ± 0.67

CAGUAGCAAUAUUACGAACC
self-splicing fitness (ln) (37 °C): -2.39 ± 1.1

UGGCAGCAAUAUUACGGAGC
self-splicing fitness (ln) (30 °C): -3.3 ± 0.53
self-splicing fitness (ln) (37 °C): -2.9 ± 1.1

CGUAAGCAAUAUUACGAGAC
self-splicing fitness (ln) (37 °C): -3.67 ± 1

GUAGAGCAAUAUUACGACUU
self-splicing fitness (ln) (30 °C): -0.172 ± 0.081
self-splicing fitness (ln) (37 °C): 0.104 ± 0.1

GCCUAGCAAUAUUACGAGAA
self-splicing fitness (ln) (30 °C): -2.03 ± 0.67

AGCCAGCAAUAUUACGCCUC
self-splicing fitness (ln) (30 °C): -2.47 ± 1.1

AAAAAGCAAUAUUACGCCAC
self-splicing fitness (ln) (30 °C): -1.93 ± 0.52

ACAAAGCAAUAUUACGUGAG
self-splicing fitness (ln) (30 °C): -0.439 ± 0.049
self-splicing fitness (ln) (37 °C): -0.4 ± 0.079

UCGGAGCAAUAUUACGGUUU
self-splicing fitness (ln) (30 °C): -4.29 ± 1

UUCCAGCAAUAUUACGAACU
self-splicing fitness (ln) (30 °C): -2.94 ± 0.54
self-splicing fitness (ln) (37 °C): -2.37 ± 0.63

GAGGAGCAAUAUUACGCUAA
self-splicing fitness (ln) (37 °C): -1.98 ± 0.66

GGGGAGCAAUAUUACGCGAU
self-splicing fitness (ln) (30 °C): -3.26 ± 1

AAAGAGCAAUAUUACGAGCC
self-splicing fitness (ln) (37 °C): -1.11 ± 0.73

GUAAAGCAAUAUUACGGCGU
self-splicing fitness (ln) (30 °C): -0.369 ± 0.069
self-splicing fitness (ln) (37 °C): 0.409 ± 0.11

GCUCAGCAAUAUUACGAGUA
self-splicing fitness (ln) (30 °C): -0.337 ± 0.098
self-splicing fitness (ln) (37 °C): -0.433 ± 0.1

CAAUAGCAAUAUUACGUCCC
self-splicing fitness (ln) (37 °C): -1.61 ± 0.51

GAUUAGCAAUAUUACGCUAU
self-splicing fitness (ln) (30 °C): -2.97 ± 0.41
self-splicing fitness (ln) (37 °C): -1.85 ± 0.81

ACUCAGCAAUAUUACGAUCC
self-splicing fitness (ln) (37 °C): -0.693 ± 0.5

GCGGAGCAAUAUUACGUAAC
self-splicing fitness (ln) (37 °C): -1.45 ± 0.54

AUGGAGCAAUAUUACGCUUC
self-splicing fitness (ln) (30 °C): -2.91 ± 0.75

UCGAAGCAAUAUUACGCAAU
self-splicing fitness (ln) (30 °C): -4.21 ± 1

ACUCAGCAAUAUUACGGAUU
self-splicing fitness (ln) (30 °C): -0.597 ± 0.055
self-splicing fitness (ln) (37 °C): 0.0271 ± 0.076

GUCGAGCAAUAUUACGUACC
self-splicing fitness (ln) (30 °C): -2.42 ± 1.2
self-splicing fitness (ln) (37 °C): -1.98 ± 0.81

CUUUAGCAAUAUUACGAGCU
self-splicing fitness (ln) (30 °C): -2.59 ± 0.55
self-splicing fitness (ln) (37 °C): -2.13 ± 0.55

CUUGAGCAAUAUUACGCCGU
self-splicing fitness (ln) (37 °C): -1.99 ± 0.66

GAUGAGCAAUAUUACGCCGG
self-splicing fitness (ln) (30 °C): -3.73 ± 0.52

AGGAAGCAAUAUUACGAAGA
self-splicing fitness (ln) (30 °C): -2.9 ± 0.34
self-splicing fitness (ln) (37 °C): -1.61 ± 0.32

GGAGAGCAAUAUUACGUAAA
self-splicing fitness (ln) (30 °C): -3.69 ± 0.53

UUAAAGCAAUAUUACGGAGA
self-splicing fitness (ln) (30 °C): -1.64 ± 0.15
self-splicing fitness (ln) (37 °C): 0.00703 ± 0.2

GUUGAGCAAUAUUACGUCGU
self-splicing fitness (ln) (30 °C): -3.25 ± 0.39
self-splicing fitness (ln) (37 °C): -1.5 ± 0.55

CAGUAGCAAUAUUACGCAAA
self-splicing fitness (ln) (30 °C): -3.74 ± 0.62

CAAGAGCAAUAUUACGUCCA
self-splicing fitness (ln) (30 °C): -3.57 ± 1
self-splicing fitness (ln) (37 °C): -1.78 ± 1.2

AUAUAGCAAUAUUACGAAUA
self-splicing fitness (ln) (37 °C): -2.27 ± 0.66

CGCGAGCAAUAUUACGGGGC
self-splicing fitness (ln) (37 °C): -2.09 ± 0.52

AUGGAGCAAUAUUACGACUG
self-splicing fitness (ln) (37 °C): -3.19 ± 0.6

CGUCAGCAAUAUUACGGCUA
self-splicing fitness (ln) (30 °C): -0.938 ± 0.11
self-splicing fitness (ln) (37 °C): -0.751 ± 0.11

UGGCAGCAAUAUUACGUCAC
self-splicing fitness (ln) (30 °C): -3.7 ± 0.78
self-splicing fitness (ln) (37 °C): -2.55 ± 0.83

UAGGAGCAAUAUUACGGGGG
self-splicing fitness (ln) (30 °C): -3.71 ± 0.59

CAUUAGCAAUAUUACGGACC
self-splicing fitness (ln) (30 °C): -2.91 ± 0.61
self-splicing fitness (ln) (37 °C): -3.81 ± 0.72

CGUGAGCAAUAUUACGGAAC
self-splicing fitness (ln) (30 °C): -3.57 ± 0.75

GGGUAGCAAUAUUACGUAUG
self-splicing fitness (ln) (30 °C): -4.31 ± 0.72

GGAGAGCAAUAUUACGGCGC
self-splicing fitness (ln) (30 °C): -0.753 ± 0.62
self-splicing fitness (ln) (37 °C): -0.134 ± 0.63

UGCCAGCAAUAUUACGGCGC
self-splicing fitness (ln) (30 °C): -3.8 ± 0.27
self-splicing fitness (ln) (37 °C): -3.04 ± 0.23
